Results as given in PubChem BioAssay AID248 (DTP/NCI, 2004).
The list is a part of this screen's results and no random one: it is rich in T/C values a quarter to a half above the control, in often repeated tests (any T/C) and in doses without a T/C. Other doses and runs of a compound stand elsewhere. T/C gives the treated animals as a percentage of the vehicle group. Some doses have a count of surviving animals in place of a T/C: the source holds a T/C of zero for them, seemingly a mark for toxic or unscored doses. Some survivor counts are full or nearly so, which does not show that the dose was tolerated: survival well below the control is almost never listed, so the zero probably covers shortened survival too. Counts of survivors are from the toxicity check (mostly the fifth day) where no day follows; animals may have died later. Schedule codes are those of the source, read here as Q, the interval in days (D) or hours (H), X, the number of doses. Some schedule codes hold Z or #, which are not explained here. For survival time, the PubChem record calls one and a half times the control and up active, and a quarter to a half above the control has no call in these data; cut-offs in other NCI protocols can differ.

System: L1210 leukemia ip in BDF1 mice, survival T/C
Assay: NCI In Vivo Anticancer Drug Screen. Data for tumor model L1210 Leukemia (intraperitoneal) in B6D2F1 (BDF1) mice
Conditions: higher T/C = longer survival
[1] = T/C endpoint: mean survival time, dose: 100.0 mg/kg/injection, schedule: Q04DX002 (ip), vehicle: saline with Tween-80
[2] = T/C endpoint: mean survival time, dose: 200.0 mg/kg/injection, schedule: Q04DX002 (ip), vehicle: saline with Tween-80
[3] = T/C endpoint: mean survival time, dose: 400.0 mg/kg/injection, schedule: Q04DX002 (ip), vehicle: saline with Tween-80
[4] = T/C endpoint: mean survival time, dose: 100.0 mg/kg/injection, schedule: Q01DX009 (ip), vehicle: Klucel (hydroxypropylcellulose) (HPC)
[5] = T/C endpoint: mean survival time, dose: 10.0 mg/kg/injection, schedule: Q01DX Z (ip), vehicle: methylcellulose (MC)
[6] = T/C endpoint: mean survival time, dose: 400.0 mg/kg/injection, schedule: Q04DX003 (ip), vehicle: saline

For `c1ccc(CNc2ncnc3[nH]ncc23)cc1`, the survivor count (T/C endpoint: mean survival time, dose: 64.0 mg/kg/injection, schedule: Q01DX009 (ip), vehicle: saline) was 6 of 6, the survivor count (T/C endpoint: mean survival time, dose: 75.0 mg/kg/injection, schedule: Q01DX Z (ip), vehicle: carboxymethylcellulose (CMC)) was 5 of 6 and the survivor count (T/C endpoint: mean survival time, dose: 100.0 mg/kg/injection, schedule: Q01DX Z (ip), vehicle: carboxymethylcellulose (CMC)) was 0 of 6. For the same compound, the T/C (T/C endpoint: median survival time, dose: 32.0 mg/kg/injection, schedule: Q01DX009 (ip), vehicle: saline) was 125 % of control.

For `COc1ccc2c(c1)/C(=C/CCN(C)C)c1ccccc1S2`, the survivor count (T/C endpoint: mean survival time, dose: 25.0 mg/kg/injection, schedule: Q01DX009 (ip), vehicle: carboxymethylcellulose (CMC)) was 1 of 6, the survivor count (T/C endpoint: mean survival time, dose: 50.0 mg/kg/injection, schedule: Q04DX003 (ip), vehicle: other) was 1 of 6 and the survivor count (T/C endpoint: mean survival time, dose: 100.0 mg/kg/injection, schedule: Q01DX001 (ip), vehicle: other) was 0 of 6. For the same compound, the survivor count (T/C endpoint: mean survival time, dose: 200.0 mg/kg/injection, schedule: Q01DX001 (ip), vehicle: other) was 0 of 6 and the survivor count (T/C endpoint: mean survival time, dose: 400.0 mg/kg/injection, schedule: Q01DX001 (ip), vehicle: other) was 0 of 6.

For `O=[N+]([O-])c1ccc(N/N=C/C(c2ccccc2)c2ccsc2)c([N+](=O)[O-])c1` (configuration not stated), the survivor count (T/C endpoint: mean survival time, dose: 400.0 mg/kg/injection, schedule: Q01DX001 (ip), vehicle: saline with Tween-80) was 2 of 6.

In the case of `CC(C)C[As](C)(=O)O`, the T/C (T/C endpoint: mean survival time, dose: 100.0 mg/kg/injection, schedule: Q01DX009 (ip), vehicle: saline) is reported as 132 % of control, the survivor count (T/C endpoint: mean survival time, dose: 200.0 mg/kg/injection, schedule: Q01DX009 (ip), vehicle: saline) is reported as 2 of 6 and the survivor count (T/C endpoint: mean survival time, dose: 400.0 mg/kg/injection, schedule: Q01DX009 (ip), vehicle: saline) is reported as 0 of 6.

With `COC(=O)C(Br)C(=O)OC` the survivor count (T/C endpoint: mean survival time, dose: 50.0 mg/kg/injection, schedule: Q04DX002 (ip), vehicle: saline with Tween-80) was 1 of 3, the survivor count [1] was 0 of 3 and the survivor count [2] was 0 of 3. For the same compound, the survivor count [3] was 0 of 3.

`CN(C)Cc1cc(Cl)ccc1O` was tested, and the survivor count (T/C endpoint: mean survival time, dose: 200.0 mg/kg/injection, schedule: Q04DX002 (ip), vehicle: Klucel (hydroxypropylcellulose) (HPC)) was 0 of 3 and the survivor count (T/C endpoint: mean survival time, dose: 400.0 mg/kg/injection, schedule: Q04DX002 (ip), vehicle: Klucel (hydroxypropylcellulose) (HPC)) was 0 of 3.

With `COc1ccc(C(C#N)N2CCCCC2)cc1` (configuration not stated) the survivor count [4] was 6 of 6.

With `O=C(OCC1OCOC(COC(=O)c2ccccc2)C(OC(=O)c2ccccc2)C1OC(=O)c1ccccc1)c1ccccc1` (configuration not stated) the survivor count [1] was 3 of 3 and the survivor count [2] was 3 of 3.

`CCCCCCCCCCCCNC(=O)CC(O)(CC(=O)O)C(=O)O` (configuration not stated) was tested, and the survivor count (T/C endpoint: mean survival time, dose: 200.0 mg/kg/injection, schedule: Q04DX003 (ip), vehicle: Klucel (hydroxypropylcellulose) (HPC)) was 1 of 6 and the survivor count (T/C endpoint: mean survival time, dose: 400.0 mg/kg/injection, schedule: Q04DX003 (ip), vehicle: Klucel (hydroxypropylcellulose) (HPC)) was 0 of 6.

`NC1=NC(c2ccccc2)N(c2ccccc2Cl)C(N)=N1` (configuration not stated) was tested, and the survivor count (T/C endpoint: mean survival time, dose: 300.0 mg/kg/injection, schedule: Q01DX001 (ip), vehicle: Klucel (hydroxypropylcellulose) (HPC)) was 0 of 6.

In the case of `Cc1c2c(ccc3ccccc32)c[n+]2ccccc12`, the T/C (T/C endpoint: mean survival time, dose: 3.13 mg/kg/injection, schedule: Q01DX009 (ip), vehicle: saline) is reported as 125 % of control, the survivor count (T/C endpoint: mean survival time, dose: 4.4 mg/kg/injection, schedule: Q01DX Z (ip), vehicle: methylcellulose (MC)) is reported as 6 of 6 and the survivor count (T/C endpoint: mean survival time, dose: 6.0 mg/kg/injection, schedule: Q01DX Z (ip), vehicle: methylcellulose (MC)) is reported as 3 of 6. The T/C (T/C endpoint: mean survival time, dose: 6.25 mg/kg/injection, schedule: Q01DX009 (ip), vehicle: saline) was 137 % of control, the survivor count (T/C endpoint: mean survival time, dose: 6.6 mg/kg/injection, schedule: Q01DX Z (ip), vehicle: methylcellulose (MC)) was 2 of 6 and the survivor count (T/C endpoint: mean survival time, dose: 9.0 mg/kg/injection, schedule: Q03HX024 (ip), vehicle: saline) was 4 of 10. The survivor count (T/C endpoint: mean survival time, dose: 10.0 mg/kg/injection, schedule: Q01DX Z (ip), vehicle: carboxymethylcellulose (CMC)) was 4 of 6, the T/C [5] was 127 % of control and the survivor count [5] was 1 of 6. The T/C (T/C endpoint: mean survival time, dose: 12.5 mg/kg/injection, schedule: Q01DX009 (ip), vehicle: saline) was 132 % of control, the survivor count (T/C endpoint: mean survival time, dose: 13.0 mg/kg/injection, schedule: Q03HX024 (ip), vehicle: saline) was 0 of 10 and the survivor count (T/C endpoint: mean survival time, dose: 15.0 mg/kg/injection, schedule: Q01DX Z (ip), vehicle: methylcellulose (MC)) was 0 of 6. For the same compound, the survivor count (T/C endpoint: mean survival time, dose: 20.0 mg/kg/injection, schedule: Q01DX Z (ip), vehicle: carboxymethylcellulose (CMC)) was 4 of 6, the survivor count (T/C endpoint: mean survival time, dose: 20.0 mg/kg/injection, schedule: Q03HX024 (ip), vehicle: saline) was 0 of 10 and the survivor count (T/C endpoint: mean survival time, dose: 25.0 mg/kg/injection, schedule: Q04DX003 (ip), vehicle: saline) was 4 of 6. For the same compound, the survivor count (T/C endpoint: mean survival time, dose: 30.0 mg/kg/injection, schedule: Q01DX009 (ip), vehicle: saline) was 0 of 10, the survivor count (T/C endpoint: mean survival time, dose: 30.0 mg/kg/injection, schedule: Q03HX024 (ip), vehicle: saline) was 0 of 10 and the survivor count (T/C endpoint: mean survival time, dose: 40.0 mg/kg/injection, schedule: Q01DX001 (ip), vehicle: carboxymethylcellulose (CMC)) was 2 of 6. For the same compound, the survivor count (T/C endpoint: mean survival time, dose: 40.0 mg/kg/injection, schedule: Q01DX001 (ip), vehicle: saline) was 5 of 10, the survivor count (T/C endpoint: mean survival time, dose: 40.0 mg/kg/injection, schedule: Q04DX003 (ip), vehicle: saline) was 0 of 10 and the survivor count (T/C endpoint: mean survival time, dose: 60.0 mg/kg/injection, schedule: Q01DX001 (ip), vehicle: saline) was 0 of 10. For the same compound, the survivor count (T/C endpoint: mean survival time, dose: 60.0 mg/kg/injection, schedule: Q04DX003 (ip), vehicle: saline) was 0 of 10, the survivor count (T/C endpoint: mean survival time, dose: 100.0 mg/kg/injection, schedule: Q04DX003 (ip), vehicle: saline) was 0 of 6 and the survivor count (T/C endpoint: mean survival time, dose: 200.0 mg/kg/injection, schedule: Q04DX003 (ip), vehicle: saline) was 0 of 6. The survivor count [6] was 0 of 6.

For `C/C=C/C(=O)Nc1ccccc1`, the survivor count (T/C endpoint: mean survival time, dose: 400.0 mg/kg/injection, schedule: Q01DX001 (ip), vehicle: carboxymethylcellulose (CMC)) was 3 of 6.

With `CCC[CH2][Sn]1([CH2]CCC)[O]C(=O)C[S]1` the survivor count (T/C endpoint: mean survival time, dose: 5.0 mg/kg/injection, schedule: Q01DX009 (ip), vehicle: acetone) was 0 of 6, the survivor count (T/C endpoint: mean survival time, dose: 10.0 mg/kg/injection, schedule: Q01DX009 (ip), vehicle: acetone) was 0 of 6 and the survivor count (T/C endpoint: mean survival time, dose: 12.0 mg/kg/injection, schedule: Q01DX Z (ip), vehicle: saline) was 2 of 6. The survivor count (T/C endpoint: mean survival time, dose: 12.5 mg/kg/injection, schedule: Q01DX001 (ip), vehicle: acetone) was 0 of 6, the survivor count (T/C endpoint: mean survival time, dose: 25.0 mg/kg/injection, schedule: Q01DX001 (ip), vehicle: acetone) was 0 of 6 and the survivor count (T/C endpoint: mean survival time, dose: 25.0 mg/kg/injection, schedule: Q04DX002 (ip), vehicle: saline with Tween-80) was 1 of 3. For the same compound, the survivor count (T/C endpoint: mean survival time, dose: 28.0 mg/kg/injection, schedule: Q04DX003 (ip), vehicle: saline with Tween-80) was 0 of 6, the survivor count (T/C endpoint: mean survival time, dose: 44.0 mg/kg/injection, schedule: Q04DX003 (ip), vehicle: saline with Tween-80) was 0 of 6 and the survivor count (T/C endpoint: mean survival time, dose: 50.0 mg/kg/injection, schedule: Q01DX001 (ip), vehicle: acetone) was 0 of 6. The survivor count (T/C endpoint: mean survival time, dose: 70.0 mg/kg/injection, schedule: Q04DX003 (ip), vehicle: saline with Tween-80) was 0 of 6, the survivor count (T/C endpoint: mean survival time, dose: 100.0 mg/kg/injection, schedule: Q01DX001 (ip), vehicle: acetone) was 0 of 6 and the survivor count (T/C endpoint: mean survival time, dose: 200.0 mg/kg/injection, schedule: Q01DX001 (ip), vehicle: acetone) was 0 of 6. The survivor count [2] was 1 of 3, the survivor count (T/C endpoint: mean survival time, dose: 400.0 mg/kg/injection, schedule: Q01DX001 (ip), vehicle: acetone) was 0 of 6 and the survivor count [3] was 0 of 3.

For `CCCCCCCCCCCC[N+]1([O-])CCOCC1`, the survivor count [1] was 3 of 3.

With `CCCCOCCOCCOc1ccc(C(=O)O)cc1` the survivor count [6] was 6 of 6.

With `CCCCCCC[As](=O)(O)O` the survivor count (T/C endpoint: mean survival time, dose: 25.0 mg/kg/injection, schedule: Q01DX009 (ip), vehicle: Klucel (hydroxypropylcellulose) (HPC)) was 0 of 3, the survivor count (T/C endpoint: mean survival time, dose: 50.0 mg/kg/injection, schedule: Q01DX009 (ip), vehicle: Klucel (hydroxypropylcellulose) (HPC)) was 0 of 3 and the survivor count [4] was 0 of 3. For the same compound, the survivor count (T/C endpoint: mean survival time, dose: 200.0 mg/kg/injection, schedule: Q01DX009 (ip), vehicle: Klucel (hydroxypropylcellulose) (HPC)) was 0 of 3.
